# Laboratory results from US20110144181A1, “Pharmaceutical Compositions of Amorphous Atorvasta and Process for Preparing Same” (Warner-Lambert Company LLC, priority 2004, published 2011).
# Structures can show the parent of a compound that is named as a salt.
# Experiment: Dissolution of milled extrudate in USP water (USP Type II apparatus)
# Type: physicochemical
# Settings: 37° C.
# Method: The samples were tested using a USP Type II dissolution apparatus (37° C., 50 RPM). Three samples, each containing approximately 20 mg of active ingredient, were dissolved in USP purified water. Samples were pulled at 15, 30, 45, and 60 minutes. An additional sample was pulled after the paddle speed was increased to 100 RPM for 20 minutes. The samples were filtered through a Millipore Millex GV filter (0.22 μm porosity) and analyzed via UV/Vis spectrophotometry (244 nm wavelength, 0.5 cm path length cell) using pure atorvastatin calcium as the standard.
structure (smiles),measurement,setting,value
"CC(C)c1c(C(=O)Nc2ccccc2)c(-c2ccccc2)c(-c2ccc(F)cc2)n1CC[C@@H](O)C[C@@H](O)CC(=O)O (relative stereo) [Bulk drug, [R-(R*,R*)]-2-(4-fluorophenyl)-β,δ-dihydroxy-5-(1-methylethyl)-3-phenyl-4-[(phenylamino)carbonyl]-1H-pyrrole-1-heptanoic acid calcium salt (2:1) trihydrate]",Amount of Extrudate Dissolved in USP Water @ 15 min,"50 RPM, approx. 20 mg active, n = 3, 15 min",70.2 % (w/w)
same,Amount of Extrudate Dissolved in USP Water @ 30 min,"50 RPM, approx. 20 mg active, n = 3, 30 min",89.8 % (w/w)
same,Amount of Extrudate Dissolved in USP Water @ 45 min,"50 RPM, approx. 20 mg active, n = 3, 45 min",95.9 % (w/w)
same,Amount of Extrudate Dissolved in USP Water @ 60 min,"50 RPM, approx. 20 mg active, n = 3, 60 min",97.9 % (w/w)
same,Amount of Extrudate Dissolved in USP Water @ 70 min,"n = 3, 70 min, pulled after paddle speed increased to 100 RPM",99.9 % (w/w)
